Record: PubChem BioAssay AID652243 (Drosophila RNAi Screening Center, 2013)
The screen tested about 24,000 reagents; shown is a random part of those with a known target gene and a result. Over the whole deposit, 246 (1%) were called active. 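Plates not normalised; calls are printed but the firefly/Renilla ratio behind them is not deposited; fold cut for lowering reported inconsistently.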 Raw values are not corrected between plates. A plus sign joins genes that one reagent is predicted to hit. No sequences are given here. The record does not give: the amount of reagent.

- Aim: 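Fly regulators of androgen-dependent reporter output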 (primary screen)
- Cell system: Drosophila S2R+ cells
- Reagents: long dsRNA against Drosophila genes
- Time to read-out: 72 h (48 h, then 24 h hormone)
- Challenge: synthetic androgen R1881 at 10 nM for 24 h
- Measurement: 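Per-well raw luminescence of the androgen-driven firefly reporter and of the Renilla control, two replicates each, without normalisation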
- Direction: firefly reporter light: higher = more light from androgen-responsive reporter; Renilla control light: higher = more constitutive control signal (cell number, transfection)
- Call rule: 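Hit when the log firefly-to-Renilla ratio dropped or increased by a fixed fold versus the mean of GFP or LacZ controls across duplicate plates; lowering cut given as 1.5 and as 3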
- Meaning of the calls: active = hit: reporter lowered or raised; inactive = no hit

gene | dsRNA | firefly reporter light, replicate 1 | firefly reporter light, replicate 2 | Renilla control light, replicate 1 | Renilla control light, replicate 2 | activity call
amd | DRSC02608 | 4.40e5 | 8.05e5 | 1.29e6 | 2.27e6 | inactive
amd | DRSC03483 | 1.08e5 | 1.30e5 | 1.33e6 | 1.73e6 | inactive
MCPH1 | DRSC06309 | 1.51e6 | 1.28e6 | 2.72e6 | 2.23e6 | inactive
MCPH1 | DRSC07308 | 4.09e5 | 2.52e5 | 2.20e6 | 1.49e6 | inactive
MCPH1 | DRSC22536 | 6.79e5 | 8.35e5 | 3.62e5 | 4.36e5 | inactive
MCPH1 | DRSC28302 | 4.73e5 | 7.97e5 | 1.23e6 | 1.73e6 | inactive
Nab2 | DRSC14158 | 88555 | 85407 | 5.24e5 | 6.74e5 | inactive
Nab2 | DRSC27135 | 3.11e5 | 1.99e5 | 6.76e5 | 3.19e5 | inactive
DNAlig4 | DRSC19436 | 7.48e5 | 9.96e5 | 4.01e6 | 4.22e6 | inactive
CG10031 | DRSC00286 | 1.02e5 | 90784 | 1.34e6 | 9.86e5 | inactive
E(spl)m7-HLH | DRSC16696 | 1.49e5 | 2.02e5 | 2.07e6 | 2.21e6 | inactive
E(spl)m7-HLH | DRSC29451 | 4.26e5 | 4.21e5 | 8.47e5 | 8.47e5 | inactive
Spn53F | DRSC06022 | 1.03e5 | 81444 | 1.99e6 | 1.99e6 | inactive
CG5676 | DRSC02875 | 1.87e5 | 2.19e5 | 1.17e6 | 1.74e6 | inactive
bnl | DRSC13377 | 2.52e5 | 74656 | 2.11e5 | 86023 | inactive
bnl | DRSC23212 | 5.62e5 | 5.09e5 | 1.25e6 | 8.94e5 | inactive
bnl | DRSC29056 | 3.78e5 | 2.61e5 | 1.53e6 | 1.17e6 | inactive
pug | DRSC17036 | 1.37e5 | 1.38e5 | 2.52e6 | 1.96e6 | inactive
pug | DRSC29896 | 4.16e5 | 3.47e5 | 9.46e5 | 8.52e5 | inactive
CG34012 | DRSC38846 | 3.09e5 | 3.05e5 | 1.02e6 | 9.95e5 | inactive
GC | DRSC08396 | 84041 | 81056 | 6.18e5 | 5.61e5 | inactive
GC | DRSC27222 | 3.16e5 | 2.13e5 | 7.58e5 | 5.46e5 | inactive
CG5793 | DRSC15874 | 2.96e5 | 2.92e5 | 3.82e6 | 4.19e6 | inactive
CG5793 | DRSC26692 | 3.77e5 | 2.87e5 | 8.11e5 | 7.84e5 | inactive
Elo68beta | DRSC09860 | 3.72e5 | 2.86e5 | 2.79e6 | 2.56e6 | inactive
CG12253 | DRSC02153 | 1.04e6 | 6.02e5 | 1.70e6 | 1.69e6 | inactive
CG12253 | DRSC27266 | 2.44e5 | 3.26e5 | 5.67e5 | 7.01e5 | inactive
CG32374 | DRSC10986 | 2.78e5 | 1.95e5 | 2.11e6 | 2.44e6 | inactive
CR14033 | DRSC02358 | 1.73e6 | 1.73e6 | 1.31e6 | 2.16e6 | inactive
CR14033 | DRSC24988 | 8.90e5 | 8.55e5 | 1.18e6 | 1.18e6 | inactive

Continued (8 carried over from the part before).
gene | dsRNA | firefly reporter light, replicate 1 | firefly reporter light, replicate 2 | Renilla control light, replicate 1 | Renilla control light, replicate 2 | activity call
CG5793 | DRSC15874 | 2.96e5 | 2.92e5 | 3.82e6 | 4.19e6 | inactive
CG5793 | DRSC26692 | 3.77e5 | 2.87e5 | 8.11e5 | 7.84e5 | inactive
Elo68beta | DRSC09860 | 3.72e5 | 2.86e5 | 2.79e6 | 2.56e6 | inactive
CG12253 | DRSC02153 | 1.04e6 | 6.02e5 | 1.70e6 | 1.69e6 | inactive
CG12253 | DRSC27266 | 2.44e5 | 3.26e5 | 5.67e5 | 7.01e5 | inactive
CG32374 | DRSC10986 | 2.78e5 | 1.95e5 | 2.11e6 | 2.44e6 | inactive
CR14033 | DRSC02358 | 1.73e6 | 1.73e6 | 1.31e6 | 2.16e6 | inactive
CR14033 | DRSC24988 | 8.90e5 | 8.55e5 | 1.18e6 | 1.18e6 | inactive
ATPsynG | DRSC02928 | 3.63e5 | 3.10e5 | 2.22e6 | 1.72e6 | inactive
wam | DRSC15171 | 1.56e5 | 2.15e5 | 1.65e6 | 2.02e6 | inactive
eya | DRSC03510 | 8.94e5 | 1.24e6 | 1.69e6 | 1.91e6 | inactive
eya | DRSC37547 | – | – | – | – | inactive
eya | DRSC39294 | – | – | – | – | inactive
Nadk1a | DRSC05431 | 88806 | 1.77e5 | 1.72e5 | 2.11e5 | inactive
Nadk1a | DRSC06963 | 1.15e6 | 7.90e5 | 3.10e6 | 2.40e6 | inactive
CG13538 | DRSC04180 | 3.75e5 | 3.75e5 | 2.24e6 | 1.49e6 | inactive
crp | DRSC03515 | 1.01e5 | 1.23e5 | 1.14e6 | 1.49e6 | inactive
subdued | DRSC15137 | 89640 | 1.03e5 | 5.00e5 | 4.91e5 | inactive
CG17230 | DRSC15203 | 90846 | 74076 | 6.25e5 | 5.60e5 | inactive
CG17230 | DRSC27268 | 1.97e5 | 2.28e5 | 4.85e5 | 5.66e5 | inactive
Tgs1 + moi | DRSC24535 | 6.76e5 | 5.38e5 | 9.04e5 | 7.07e5 | inactive
Tgs1 + moi | DRSC39087 | 2.13e5 | 1.47e5 | 7.58e5 | 4.77e5 | inactive
Nepl13 | DRSC15632 | 1.63e5 | 1.77e5 | 2.06e6 | 2.13e6 | inactive
cu | DRSC15643 | 2.07e5 | 1.58e5 | 3.16e6 | 2.38e6 | inactive
cu | DRSC15648 | 1.46e5 | 94774 | 1.71e6 | 1.97e6 | inactive
aqz | DRSC16570 | 1.17e5 | 1.33e5 | 2.05e6 | 2.44e6 | inactive
aqz | DRSC25042 | 9.02e5 | 7.04e5 | 1.52e6 | 1.17e6 | inactive
narya | DRSC19439 | 96361 | 1.61e5 | 9.38e5 | 1.18e6 | inactive
cDIP | DRSC14267 | 1.12e5 | 62512 | 6.07e5 | 4.66e5 | inactive
CG4408 | DRSC15574 | 61200 | 47038 | 5.17e5 | 4.97e5 | inactive
Cpr11B | DRSC19859 | 3.38e5 | 2.22e5 | 7.94e5 | 6.51e5 | inactive
CG13895 | DRSC08365 | 81751 | 1.01e5 | 1.28e6 | 1.24e6 | inactive
CG30110 | DRSC05686 | 1.55e5 | 1.21e5 | 4.52e5 | 3.38e5 | inactive
CG7987 | DRSC16357 | 46038 | 64905 | 5.21e5 | 6.41e5 | inactive
CG7987 | DRSC30002 | 3.58e5 | 3.12e5 | 1.20e6 | 1.23e6 | inactive
CG34367 | DRSC02238 | 2.26e5 | 2.51e5 | 1.95e6 | 2.23e6 | inactive
CG34367 | DRSC02850 | 1.41e5 | 1.36e5 | 1.24e6 | 1.34e6 | inactive
CG34367 | DRSC28054 | 3.39e5 | 4.53e5 | 9.39e5 | 9.37e5 | inactive
